Laboratory results as given in the supplement of paper PMC10849652.
This is one part of the list.

By UniProt entry, the sequences of proteins in these tests, tags left out. Where a name states a change or a piece, a line headed by the entry shows the natural chain unless it says otherwise.
UniProt P62491: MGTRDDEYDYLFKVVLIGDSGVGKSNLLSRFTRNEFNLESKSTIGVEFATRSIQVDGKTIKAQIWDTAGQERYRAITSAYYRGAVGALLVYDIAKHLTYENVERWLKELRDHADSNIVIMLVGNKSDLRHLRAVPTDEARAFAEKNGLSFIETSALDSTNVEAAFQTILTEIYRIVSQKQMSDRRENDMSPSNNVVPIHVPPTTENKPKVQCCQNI
UniProt Q86YS3: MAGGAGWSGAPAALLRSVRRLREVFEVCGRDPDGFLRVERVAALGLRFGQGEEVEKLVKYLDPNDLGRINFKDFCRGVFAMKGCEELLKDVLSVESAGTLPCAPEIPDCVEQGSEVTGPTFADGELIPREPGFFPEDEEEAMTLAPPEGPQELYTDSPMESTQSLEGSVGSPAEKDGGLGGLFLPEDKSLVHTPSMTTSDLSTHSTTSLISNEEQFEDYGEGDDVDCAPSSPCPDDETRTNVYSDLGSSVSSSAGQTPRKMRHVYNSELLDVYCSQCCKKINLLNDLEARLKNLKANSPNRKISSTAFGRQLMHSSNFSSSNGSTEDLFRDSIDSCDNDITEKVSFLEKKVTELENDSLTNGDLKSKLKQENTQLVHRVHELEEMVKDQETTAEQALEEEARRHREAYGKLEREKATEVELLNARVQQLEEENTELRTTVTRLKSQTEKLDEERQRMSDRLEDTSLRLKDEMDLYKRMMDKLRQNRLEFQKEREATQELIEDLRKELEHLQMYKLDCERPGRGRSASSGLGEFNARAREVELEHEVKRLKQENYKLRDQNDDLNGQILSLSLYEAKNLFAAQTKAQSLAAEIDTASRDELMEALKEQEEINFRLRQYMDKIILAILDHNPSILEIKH
UniProt P20340: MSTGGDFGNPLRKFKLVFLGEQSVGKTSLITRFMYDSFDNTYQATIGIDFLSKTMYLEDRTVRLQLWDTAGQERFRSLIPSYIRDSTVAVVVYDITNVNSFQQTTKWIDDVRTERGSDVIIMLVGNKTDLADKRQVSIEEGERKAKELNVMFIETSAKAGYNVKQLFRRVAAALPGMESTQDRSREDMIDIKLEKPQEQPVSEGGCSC
UniProt Q92698: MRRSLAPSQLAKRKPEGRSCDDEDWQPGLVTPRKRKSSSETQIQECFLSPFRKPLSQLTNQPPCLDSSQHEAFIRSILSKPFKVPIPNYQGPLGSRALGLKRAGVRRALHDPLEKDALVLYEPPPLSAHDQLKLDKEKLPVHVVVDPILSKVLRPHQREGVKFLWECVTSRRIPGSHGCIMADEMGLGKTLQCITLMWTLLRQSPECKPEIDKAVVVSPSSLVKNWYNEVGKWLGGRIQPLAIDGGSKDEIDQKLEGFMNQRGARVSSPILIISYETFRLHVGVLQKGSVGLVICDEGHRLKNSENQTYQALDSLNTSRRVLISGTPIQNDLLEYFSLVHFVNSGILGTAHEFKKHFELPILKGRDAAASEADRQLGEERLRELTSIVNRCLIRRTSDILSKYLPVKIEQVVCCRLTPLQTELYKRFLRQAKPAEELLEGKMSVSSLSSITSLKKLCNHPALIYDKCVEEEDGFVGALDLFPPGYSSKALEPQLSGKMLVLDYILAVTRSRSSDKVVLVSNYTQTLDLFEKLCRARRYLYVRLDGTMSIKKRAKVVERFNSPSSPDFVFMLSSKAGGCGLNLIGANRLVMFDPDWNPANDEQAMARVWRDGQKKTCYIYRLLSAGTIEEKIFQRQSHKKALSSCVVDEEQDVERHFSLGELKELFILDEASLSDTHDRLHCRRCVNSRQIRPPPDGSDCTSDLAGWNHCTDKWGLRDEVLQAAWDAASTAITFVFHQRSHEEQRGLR
UniProt P11234: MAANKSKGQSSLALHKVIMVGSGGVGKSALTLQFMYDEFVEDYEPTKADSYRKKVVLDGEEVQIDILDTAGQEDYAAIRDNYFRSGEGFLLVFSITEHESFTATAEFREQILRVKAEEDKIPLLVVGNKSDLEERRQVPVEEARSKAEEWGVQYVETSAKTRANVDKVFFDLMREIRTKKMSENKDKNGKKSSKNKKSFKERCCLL
UniProt Q15274: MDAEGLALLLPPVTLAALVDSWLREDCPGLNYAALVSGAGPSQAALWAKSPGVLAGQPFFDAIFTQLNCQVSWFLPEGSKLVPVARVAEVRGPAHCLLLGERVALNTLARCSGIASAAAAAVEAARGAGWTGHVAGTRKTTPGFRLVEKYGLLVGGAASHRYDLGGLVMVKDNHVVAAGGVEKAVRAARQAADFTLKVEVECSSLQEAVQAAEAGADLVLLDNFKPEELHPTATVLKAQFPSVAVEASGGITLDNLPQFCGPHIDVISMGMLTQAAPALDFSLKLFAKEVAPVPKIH
UniProt Q9BUV8: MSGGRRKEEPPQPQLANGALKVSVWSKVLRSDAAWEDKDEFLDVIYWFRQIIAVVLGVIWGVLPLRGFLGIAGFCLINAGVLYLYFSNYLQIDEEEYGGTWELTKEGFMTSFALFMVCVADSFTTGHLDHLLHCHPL
UniProt Q9BRQ0: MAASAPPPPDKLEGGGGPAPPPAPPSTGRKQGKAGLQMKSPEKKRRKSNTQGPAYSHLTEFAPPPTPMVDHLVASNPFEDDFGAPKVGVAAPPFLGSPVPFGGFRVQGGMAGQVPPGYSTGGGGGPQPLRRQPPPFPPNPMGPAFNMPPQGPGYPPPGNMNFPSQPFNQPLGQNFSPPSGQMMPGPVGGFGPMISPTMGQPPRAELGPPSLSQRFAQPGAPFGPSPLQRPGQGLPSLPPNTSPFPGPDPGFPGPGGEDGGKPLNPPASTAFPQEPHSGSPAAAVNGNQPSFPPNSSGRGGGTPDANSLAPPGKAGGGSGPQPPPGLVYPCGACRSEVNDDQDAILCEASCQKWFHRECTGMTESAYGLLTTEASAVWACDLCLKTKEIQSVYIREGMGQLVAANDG
UniProt O95716: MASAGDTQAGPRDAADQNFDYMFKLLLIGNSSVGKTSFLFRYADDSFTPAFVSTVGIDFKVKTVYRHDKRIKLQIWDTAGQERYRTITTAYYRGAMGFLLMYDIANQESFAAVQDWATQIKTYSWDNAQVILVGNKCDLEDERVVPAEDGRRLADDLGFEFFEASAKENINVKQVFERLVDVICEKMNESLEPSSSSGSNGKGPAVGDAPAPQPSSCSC
UniProt Q7Z5J4: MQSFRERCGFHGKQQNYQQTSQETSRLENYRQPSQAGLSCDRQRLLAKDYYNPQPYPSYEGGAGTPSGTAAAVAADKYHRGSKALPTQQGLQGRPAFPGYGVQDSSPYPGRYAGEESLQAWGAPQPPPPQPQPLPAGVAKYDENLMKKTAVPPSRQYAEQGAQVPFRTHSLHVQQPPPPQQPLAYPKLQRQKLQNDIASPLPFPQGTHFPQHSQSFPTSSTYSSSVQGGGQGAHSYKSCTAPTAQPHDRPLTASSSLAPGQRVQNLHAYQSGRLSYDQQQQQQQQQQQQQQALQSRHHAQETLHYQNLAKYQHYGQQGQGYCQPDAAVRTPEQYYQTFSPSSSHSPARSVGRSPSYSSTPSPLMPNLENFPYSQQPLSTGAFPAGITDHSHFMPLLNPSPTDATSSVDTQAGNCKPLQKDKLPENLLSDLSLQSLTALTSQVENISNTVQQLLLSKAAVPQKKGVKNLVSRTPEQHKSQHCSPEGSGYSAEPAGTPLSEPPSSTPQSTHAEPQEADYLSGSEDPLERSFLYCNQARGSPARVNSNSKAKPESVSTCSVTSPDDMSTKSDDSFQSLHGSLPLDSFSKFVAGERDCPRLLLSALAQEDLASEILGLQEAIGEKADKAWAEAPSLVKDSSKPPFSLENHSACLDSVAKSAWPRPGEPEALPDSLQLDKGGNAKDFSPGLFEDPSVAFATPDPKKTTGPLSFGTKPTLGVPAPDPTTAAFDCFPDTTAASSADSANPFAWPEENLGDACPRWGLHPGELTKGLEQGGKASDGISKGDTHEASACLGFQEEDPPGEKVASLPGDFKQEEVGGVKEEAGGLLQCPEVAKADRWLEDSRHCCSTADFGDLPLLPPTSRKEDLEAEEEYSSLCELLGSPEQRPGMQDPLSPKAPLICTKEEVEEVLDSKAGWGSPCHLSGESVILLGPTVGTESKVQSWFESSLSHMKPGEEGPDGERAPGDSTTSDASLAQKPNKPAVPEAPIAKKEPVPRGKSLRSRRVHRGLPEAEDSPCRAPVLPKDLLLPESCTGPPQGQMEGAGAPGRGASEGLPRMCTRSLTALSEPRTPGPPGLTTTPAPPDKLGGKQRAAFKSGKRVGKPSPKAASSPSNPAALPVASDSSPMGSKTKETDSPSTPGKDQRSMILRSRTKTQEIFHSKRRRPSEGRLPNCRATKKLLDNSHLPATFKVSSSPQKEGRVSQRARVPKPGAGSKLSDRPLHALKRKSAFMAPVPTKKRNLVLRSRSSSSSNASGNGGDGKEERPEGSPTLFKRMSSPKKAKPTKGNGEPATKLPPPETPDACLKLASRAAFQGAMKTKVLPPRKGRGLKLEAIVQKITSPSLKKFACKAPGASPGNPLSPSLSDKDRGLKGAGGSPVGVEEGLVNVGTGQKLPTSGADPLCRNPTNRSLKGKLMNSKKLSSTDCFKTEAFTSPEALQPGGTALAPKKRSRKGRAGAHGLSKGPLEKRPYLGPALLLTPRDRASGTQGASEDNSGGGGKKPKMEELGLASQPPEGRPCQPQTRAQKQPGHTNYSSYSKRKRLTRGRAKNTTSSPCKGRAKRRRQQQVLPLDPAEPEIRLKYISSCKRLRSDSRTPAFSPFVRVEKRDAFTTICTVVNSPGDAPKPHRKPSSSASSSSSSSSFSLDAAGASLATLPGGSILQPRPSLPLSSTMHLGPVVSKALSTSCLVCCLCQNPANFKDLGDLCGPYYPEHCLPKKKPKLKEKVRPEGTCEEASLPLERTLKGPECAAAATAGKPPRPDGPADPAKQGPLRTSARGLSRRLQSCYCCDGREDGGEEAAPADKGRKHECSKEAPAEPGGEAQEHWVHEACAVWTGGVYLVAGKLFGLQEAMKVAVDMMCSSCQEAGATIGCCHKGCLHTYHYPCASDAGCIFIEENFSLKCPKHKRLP
UniProt P20337: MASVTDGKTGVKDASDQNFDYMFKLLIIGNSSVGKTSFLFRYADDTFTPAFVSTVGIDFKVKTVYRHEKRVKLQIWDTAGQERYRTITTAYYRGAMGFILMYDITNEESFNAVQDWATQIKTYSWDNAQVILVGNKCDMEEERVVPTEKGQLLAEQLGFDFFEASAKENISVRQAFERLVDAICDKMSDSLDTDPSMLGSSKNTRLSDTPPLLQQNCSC
UniProt O15315: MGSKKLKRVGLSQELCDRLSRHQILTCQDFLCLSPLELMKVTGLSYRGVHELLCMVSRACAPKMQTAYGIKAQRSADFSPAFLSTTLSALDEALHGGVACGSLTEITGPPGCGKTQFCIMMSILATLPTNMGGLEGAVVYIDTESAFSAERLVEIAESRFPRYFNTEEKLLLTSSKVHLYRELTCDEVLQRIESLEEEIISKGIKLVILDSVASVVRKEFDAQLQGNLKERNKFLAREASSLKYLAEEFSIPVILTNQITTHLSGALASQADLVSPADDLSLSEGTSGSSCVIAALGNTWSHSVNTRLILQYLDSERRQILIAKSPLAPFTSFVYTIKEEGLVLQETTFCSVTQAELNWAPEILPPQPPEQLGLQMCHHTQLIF
UniProt O75154: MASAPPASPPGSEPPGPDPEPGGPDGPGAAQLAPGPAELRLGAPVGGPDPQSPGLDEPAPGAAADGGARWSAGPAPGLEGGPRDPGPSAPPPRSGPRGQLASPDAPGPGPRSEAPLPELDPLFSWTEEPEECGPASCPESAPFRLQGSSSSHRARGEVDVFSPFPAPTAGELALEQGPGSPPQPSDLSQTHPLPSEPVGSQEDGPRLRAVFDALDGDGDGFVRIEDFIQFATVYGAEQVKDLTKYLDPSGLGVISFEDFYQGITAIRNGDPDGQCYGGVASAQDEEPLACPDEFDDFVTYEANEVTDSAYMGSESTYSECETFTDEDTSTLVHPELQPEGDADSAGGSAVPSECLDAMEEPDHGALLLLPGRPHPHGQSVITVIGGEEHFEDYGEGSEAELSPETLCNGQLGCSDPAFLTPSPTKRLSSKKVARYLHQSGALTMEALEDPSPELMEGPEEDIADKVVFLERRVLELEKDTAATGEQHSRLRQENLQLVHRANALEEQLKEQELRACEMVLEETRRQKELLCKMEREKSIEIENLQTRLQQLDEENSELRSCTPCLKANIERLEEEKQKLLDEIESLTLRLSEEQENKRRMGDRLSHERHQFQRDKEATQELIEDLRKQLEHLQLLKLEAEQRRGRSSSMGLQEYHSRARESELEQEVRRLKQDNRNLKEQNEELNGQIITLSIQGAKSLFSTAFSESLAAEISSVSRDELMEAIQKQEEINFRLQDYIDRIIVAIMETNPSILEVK
UniProt Q15771: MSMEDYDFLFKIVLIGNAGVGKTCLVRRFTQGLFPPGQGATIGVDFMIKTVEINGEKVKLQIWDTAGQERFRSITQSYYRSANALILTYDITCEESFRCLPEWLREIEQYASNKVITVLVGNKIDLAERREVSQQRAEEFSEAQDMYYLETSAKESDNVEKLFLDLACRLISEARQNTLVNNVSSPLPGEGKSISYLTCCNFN

Columns and labels:
Assay in all cases: log2 fold change, soluble protein after heating vs DMSO (PISA); higher = thermal stabilisation; K562 lysate, 10 uM; active = over 0.2 and 3.5 SD of the protein, either way, in both replicates (recomputed)
ibrutinib = compound: C=CC(=O)N1CCC[C@@H](n2nc(-c3ccc(Oc4ccccc4)cc3)c3c(N)ncnc32)C1 [ibrutinib]
Summary of the method: (§1)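 A 30 min treatment with 10 μM compound was applied to crude K562 extract at 1 mg/mL protein in PBS pH 7.4 with 1 mM MgCl2. Heating for 3 min spanned 48°C-58°C, after which aliquots were pooled, adjusted to 0.5% NP-40 at 4°C and spun at 21,000xg for 90 min. TMTpro 16plex LC-MS/MS of the supernatant, with channel sums equalised, gave values recorded as log-two fold change in thermal stability against solvent controls, from duplicates.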

[1] = compound: CC(=O)c1cnc2ccc(-c3cc(Cl)c(O)c(Cl)c3)nc2c1N[C@H]1CC[C@H](CN(C)C)CC1
Summary of the method: as §1

ralimetinib = compound: CC(C)(C)Cn1c(N)nc2ccc(-c3[nH]c(C(C)(C)C)nc3-c3ccc(F)cc3)nc21 [ralimetinib]
Summary of the method: as §1

[2] = compound: CC(C)(O)CC(=O)NCCn1ccc2ncnc(Nc3ccc(Oc4cccc(C(F)(F)F)c4)c(Cl)c3)c21
Summary of the method: as §1

[3] = compound: CC(C)C1=C2N=C(C=C(N2N=C1)NCC3=CC=CC=C3)NCCCCCCN
Summary of the method: as §1

[4] = compound: CC1=C(C(CC(=O)N1)C2=CC=C(C=C2)C(F)(F)F)C(=O)NC3=C(C=C4C(=C3)C=NN4)F
Summary of the method: as §1

[5] = compound: CC1=C(C2=C(C=C1)C(=O)C3=CC=CC=C3N2CCCN)C
Summary of the method: as §1

[6] = compound: CC1=C(C=C(C=C1)NC(=O)C2=CC(=CC=C2)C(C)(C)C#N)NC3=CC4=C(C=C3)N=CN(C4=O)C
Summary of the method: as §1

[7] = compound: CC1=C(C=C(C=C1)NC(=O)C2=CC(=CC=C2)N(C)C)NC(=O)C3=CC=C(C=C3)O
Summary of the method: as §1

[8] = compound: CC1=CC=C(C=C1)SC2=C3C=C(SC3=CN=C2)C(=O)N
Summary of the method: as §1

Measured: log2 fold change

RAB11A (UniProt P62491)
inactive: ibrutinib 0.167 | [1] -0.061 | ralimetinib 0.001 | [2] -0.035 | [3] -0.042 | [4] 0.032 | [5] -0.037 | [6] 0.001 | [7] -0.02 | [8] 0.012

RAB11FIP4 (UniProt Q86YS3)
inactive: ibrutinib -0.127 | [1] 0.098 | ralimetinib -0.177 | [2] 0.042 | [3] -0.005 | [4] 0.035 | [5] 0.205 | [7] -0.29 | [8] -0.02

RAB6A isoform 4 (UniProt P20340)
inactive: ibrutinib 0.017 | [1] -0.013 | ralimetinib -0.025 | [2] 0.003 | [3] -0.001 | [4] 0.026 | [5] 0.06 | [6] -0.001 | [7] -0.004 | [8] -0.024

RAD54L (UniProt Q92698)
inactive: ibrutinib -0.081 | [1] 0.035 | ralimetinib -0.062 | [2] -0.224 | [3] 0.085 | [4] 0 | [5] 0.039 | [7] 0.054 | [8] 0.059

Pulled one by one from the entries so far, 3 records:
RAB11FIP4 (UniProt Q86YS3)
inactive: ibrutinib -0.127 | [1] 0.098 | ralimetinib -0.177 | [2] 0.042 | [3] -0.005 | [4] 0.035 | [5] 0.205 | [7] -0.29 | [8] -0.02

RAB11A (UniProt P62491)
inactive: ibrutinib 0.167 | [1] -0.061 | ralimetinib 0.001 | [2] -0.035 | [3] -0.042 | [4] 0.032 | [5] -0.037 | [6] 0.001 | [7] -0.02 | [8] 0.012

RAB6A isoform 4 (UniProt P20340)
inactive: ibrutinib 0.017 | [1] -0.013 | ralimetinib -0.025 | [2] 0.003 | [3] -0.001 | [4] 0.026 | [5] 0.06 | [6] -0.001 | [7] -0.004 | [8] -0.024

Continuation:

RAB28 (UniProt P51157)
inactive: ibrutinib -0.053 | [1] -0.018 | ralimetinib 0.033 | [2] -0.046 | [3] -0.075 | [5] 0.081 | [6] -0.093 | [7] -0.013 | [8] -0.063

RABGAP1 (UniProt Q9Y3P9)
inactive: ibrutinib -0.007 | [1] -0.005 | ralimetinib 0.012 | [2] -0.013 | [3] -0.026 | [4] -0.016 | [5] -0.014 | [6] 0.003 | [7] 0.019 | [8] -0.028

RAPGEF4 (UniProt Q8WZA2)
inactive: ibrutinib -0.026 | [1] -0.129 | ralimetinib -0.001 | [2] -0.328 | [3] 0.044 | [5] 0.046 | [6] 0.442 | [7] -0.004 | [8] -0.166

RAD21 (UniProt O60216)
inactive: ibrutinib -0.025 | [1] -0.009 | ralimetinib 0.012 | [2] 0.01 | [3] -0.041 | [4] -0.016 | [5] -0.037 | [6] 0.006 | [7] 0.006 | [8] -0.013

RAB3IL1 (UniProt Q8TBN0)
inactive: ibrutinib 0.03 | [1] -0.035 | ralimetinib 0.021 | [2] -0.022 | [3] 0.004 | [4] 0.116 | [5] -0.006 | [6] 0.02 | [7] -0.024 | [8] 0.003

PYCARD isoform 2 (UniProt Q9ULZ3)
inactive: ibrutinib -0.194 | [1] -0.167 | ralimetinib -0.047 | [2] 0.146 | [3] 0.123 | [6] 0.057 | [7] 0.012 | [8] -0.243

RALB isoform 2 (UniProt P11234)
inactive: ibrutinib -0.006 | [1] 0.088 | ralimetinib -0.01 | [2] -0.021 | [3] 0.004 | [4] -0.028 | [5] 0 | [6] -0.019 | [7] -0.029 | [8] 0.029

QPRT (UniProt Q15274)
inactive: ibrutinib -0.013 | [1] 0.011 | ralimetinib -0.015 | [2] -0.057 | [3] -0.027 | [4] -0.02 | [5] -0.034 | [6] 0.026 | [7] -0.027 | [8] 0.002

RAB5IF isoform 5 (UniProt Q9BUV8)
inactive: ibrutinib -0.039 | [1] -0.029 | [3] -0.163 | [4] 0.086 | [5] -0.165 | [8] 0.073

RAD54B (UniProt Q9Y620)
inactive: ralimetinib 0.051 | [2] 0.047 | [4] -0.014 | [5] -0.039 | [6] -0.186 | [7] 0.017

RAB18 (UniProt Q9NP72)
inactive: ibrutinib -0.004 | [1] 0.023 | [3] -0.118 | [4] 0.028 | [5] 0.017 | [6] -0.036 | [8] 0.102

PYGO2 (UniProt Q9BRQ0)
inactive: ibrutinib 0.064 | ralimetinib 0.151 | [2] -0.122 | [3] -0.001 | [4] 0.005 | [5] 0.044 | [6] 0.011 | [7] -0.061

RAP1B (UniProt F5GZG1)
inactive: ibrutinib 0.01 | [1] -0.021 | [3] 0.061 | [4] 0.036 | [5] 0.019 | [6] -0.124 | [8] 0.117

RANGRF (UniProt Q9HD47)
inactive: [1] 0.009 | ralimetinib 0.082 | [2] -0.053 | [3] 0.219 | [5] 0.062 | [6] 0.02 | [7] -0.085 | [8] 0.136

RAB29 (UniProt O14966)
inactive: ralimetinib -0.052 | [2] 0.083 | [3] 0.066 | [5] -0.119 | [7] -0.071

RAD17 (UniProt O75943)
inactive: ibrutinib 0.023 | ralimetinib 0.054 | [2] 0.041 | [4] 0.026 | [5] -0.029 | [6] -0.041 | [7] 0.049

R3HDM2 (UniProt B5MCU0)
inactive: ralimetinib -0.08 | [2] 0.074 | [3] 0.229 | [6] -0.009 | [7] 0.034

NA (UniProt Q4G0T1)
inactive: ralimetinib 0.016 | [2] -0.096 | [3] -0.119 | [5] -0.061 | [6] -0.158 | [7] -0.151

RAD23A isoform 3 (UniProt P54725)
inactive: [1] -0.004 | ralimetinib -0.013 | [2] 0.026 | [3] 0.112 | [4] 0.143 | [7] -0.192 | [8] -0.037

RAC3 (UniProt P60763)
inactive: [3] 0 | [6] 0.118

RAD54L2 (UniProt Q9Y4B4)
inactive: ibrutinib -0.005 | [1] 0.23 | [3] -0.073 | [4] 0.131 | [5] -0.051 | [6] 0.031 | [8] 0.094

RAB3D (UniProt O95716)
inactive: [1] -0.037 | ralimetinib -0.133 | [2] -0.041 | [3] 0.093 | [5] 0.101 | [6] -0.162 | [7] -0.025 | [8] 0

RAI1 (UniProt Q7Z5J4)
inactive: [6] 0.109

RAB27B (UniProt O00194)
inactive: [1] -0.103 | [3] -0.056 | [4] 0.049 | [5] -0.026 | [8] -0.009

RAP1GDS1 isoform 4 (UniProt P52306)
inactive: ibrutinib 0.004 | [1] 0.03 | [8] -0.055

RAB3B (UniProt P20337)
inactive: [6] 0.007

PYHIN1 (UniProt Q6K0P9)
inactive: [1] -0.051 | ralimetinib -0.004 | [2] 0.1 | [4] 0.053 | [5] -0.152 | [6] -0.22 | [7] -0.047 | [8] 0.117

RAB11FIP4 isoform 2 (UniProt Q86YS3)
inactive: ralimetinib -0.245 | [2] 0.007 | [7] -0.098

RAD51B (UniProt O15315)
inactive: ibrutinib -0.021 | ralimetinib 0.006 | [2] 0.156 | [3] 0.197 | [4] 0.084 | [5] -0.015 | [6] 0.306 | [7] -0.058

QSER1, A0A3B3IRW6
inactive: [1] -0.047 | ralimetinib -0.014 | [2] -0.021 | [3] -0.009 | [4] -0.001 | [5] 0.037 | [6] 0.009 | [7] 0.087 | [8] -0.087

RAB43 (UniProt Q86YS6)
inactive: ibrutinib -0.006 | ralimetinib 0.013 | [2] 0.026 | [3] 0.081 | [4] 0.038 | [5] -0.144 | [7] 0.058

R3HDM4 (UniProt Q96D70)
inactive: ralimetinib -0.077 | [2] -0.056 | [3] -0.022 | [4] 0.139 | [5] -0.088 | [6] 0.044 | [7] 0.029

QARS1, A0A0U1RR66
inactive: [1] 0.15 | [8] -0.523

RAB11FIP5, A0A1B0GTL5
inactive: [1] 0.13 | [3] -0.197 | [6] -0.028 | [8] -0.077

RALGAPA2 (UniProt Q2PPJ7)
inactive: [1] 0.123 | [6] -0.155 | [8] 0.005

RAB11FIP3 isoform 3 (UniProt O75154)
inactive: [1] -0.03 | ralimetinib 0.021 | [2] 0.254 | [3] -0.012 | [5] -0.172 | [7] 0 | [8] -0.108

RACK1 (UniProt D6RF23)
inactive: ibrutinib 0.066 | [4] 0.014

QSOX1 (UniProt O00391)
inactive: [3] 0.037 | [5] -0.068 | [6] -0.026

RALGPS2 (UniProt Q86X27)
inactive: ibrutinib 0.114 | ralimetinib -0.059 | [2] -0.086 | [3] 0.018 | [4] -0.134 | [6] 0.041 | [7] -0.054

RAB30 (UniProt Q15771)
inactive: ibrutinib 0.021 | [3] -0.023 | [5] -0.032 | [6] -0.05

RALGAPB isoform 3 (UniProt Q86X10)
inactive: ibrutinib 0.106 | [5] -0.087
